By UniProt entry, the sequences of proteins in these tests, tags left out. Where a name states a change or a piece, a line headed by the entry shows the natural chain unless it says otherwise.
UniProt Q5XUX0: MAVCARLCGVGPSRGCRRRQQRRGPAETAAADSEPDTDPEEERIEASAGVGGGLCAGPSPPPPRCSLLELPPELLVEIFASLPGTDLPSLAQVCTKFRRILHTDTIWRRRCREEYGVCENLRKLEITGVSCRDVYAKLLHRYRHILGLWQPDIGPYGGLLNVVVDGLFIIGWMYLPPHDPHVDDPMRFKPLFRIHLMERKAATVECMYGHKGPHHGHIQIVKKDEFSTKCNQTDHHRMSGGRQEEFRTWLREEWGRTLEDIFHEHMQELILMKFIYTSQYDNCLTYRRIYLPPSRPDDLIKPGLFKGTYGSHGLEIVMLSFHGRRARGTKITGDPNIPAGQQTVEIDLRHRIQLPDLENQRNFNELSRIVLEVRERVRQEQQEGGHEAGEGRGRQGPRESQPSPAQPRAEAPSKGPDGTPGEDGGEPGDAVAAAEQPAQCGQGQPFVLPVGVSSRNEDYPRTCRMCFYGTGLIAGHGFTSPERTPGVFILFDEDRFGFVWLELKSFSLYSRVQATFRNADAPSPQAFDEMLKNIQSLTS
UniProt P63208: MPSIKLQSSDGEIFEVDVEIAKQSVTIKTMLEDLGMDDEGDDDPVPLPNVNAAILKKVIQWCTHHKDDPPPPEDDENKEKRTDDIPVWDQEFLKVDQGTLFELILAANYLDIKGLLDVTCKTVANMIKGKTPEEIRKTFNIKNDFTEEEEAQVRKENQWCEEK
UniProt P35222: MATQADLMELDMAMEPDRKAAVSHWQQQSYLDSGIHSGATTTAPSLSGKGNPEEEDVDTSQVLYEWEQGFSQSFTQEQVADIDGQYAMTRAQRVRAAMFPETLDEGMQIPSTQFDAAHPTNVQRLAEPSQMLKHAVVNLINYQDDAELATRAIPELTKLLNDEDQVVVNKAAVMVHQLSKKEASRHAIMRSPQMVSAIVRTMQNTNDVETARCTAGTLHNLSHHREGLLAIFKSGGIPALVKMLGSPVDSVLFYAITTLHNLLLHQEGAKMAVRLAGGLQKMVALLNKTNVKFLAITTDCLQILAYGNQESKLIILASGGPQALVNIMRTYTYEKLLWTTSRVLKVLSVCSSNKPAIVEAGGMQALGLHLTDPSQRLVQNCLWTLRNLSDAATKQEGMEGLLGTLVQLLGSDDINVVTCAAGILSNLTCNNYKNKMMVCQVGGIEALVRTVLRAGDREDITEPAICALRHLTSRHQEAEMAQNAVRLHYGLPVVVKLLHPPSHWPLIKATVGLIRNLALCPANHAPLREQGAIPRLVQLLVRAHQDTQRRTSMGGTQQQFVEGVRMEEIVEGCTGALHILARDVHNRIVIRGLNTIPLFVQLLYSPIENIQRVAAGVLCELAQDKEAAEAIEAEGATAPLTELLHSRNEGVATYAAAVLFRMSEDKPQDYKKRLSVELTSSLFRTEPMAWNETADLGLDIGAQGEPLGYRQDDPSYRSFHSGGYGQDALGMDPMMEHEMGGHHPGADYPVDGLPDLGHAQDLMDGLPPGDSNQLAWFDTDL

According to article PMC7933275:

Key:
[1] = target: myc-FBXO31ΔF (FBXO31 with a deletion of the F-box domain) (UniProt Q5XUX0); assay: co-IP; hBMSCs cotransfected with FLAG-β-catenin and myc-FBXO31 or myc-FBXO31ΔF for 48 h, 10 μM MG132 for 6 h; nondenaturing lysis buffer (20 mM Tris-HCl pH 8.0, 137 mM NaCl, 0.5% Nonidet P40, 2 mM EDTA); IP with anti-myc antibodies overnight at 4 °C, protein A/G agarose beads, immunoblot
[2] = target: myc-FBXO31ΔF (FBXO31 with a deletion of the F-box domain) (UniProt Q5XUX0); assay: as above; remark: listed apart in the source

binding [1] | binding [2] | Molecule
no binding |  | Skp1, endogenous in hBMSCs (from UniProt P63208 1-163)
no binding |  | FLAG-β-catenin (from UniProt P35222 1-781)
 | no binding | ubiquitin-specific protease 53 (USP53), in hBMSCs of the anti-myc co-IP (protein, UniProt Q70EK8 1-1073) MAWVKFLRKPGGNLGKVYQPGSMLSLAPTKGLLNEPGQNSCFLNSAVQVLWQLDIFRRSLRVLTGHVCQGDACIFCALKTIFAQFQHSREKALPSDNIRHALAESFKDEQRFQLGLMDDAAECFENMLERIHFHIVPSRDADMCTSKSCITHQKFAMTLYEQCVCRSCGASSDPLPFTEFVRYISTTALCNEVERMLERHERFKPEMFAELLQAANTTDDYRKCPSNCGQKIKIRRVLMNCPEIVTIGLVWDSEHSDLTEAVVRNLATHLYLPGLFYRVTDENAKNSELNLVGMICYTSQHYCAFAFHTKSSKWVFFDDANVKEIGTRWKDVVSKCIRCHFQPLLLFYANPDGTAVSTEDALRQVISWSHYKSVAENMGCEKPVIHKSDNLKENGFGDQAKQRENQKFPTDNISSSNRSHSHTGVGKGPAKLSHIDQREKIKDISRECALKAIEQKNLLSSQRKDLEKGQRKDLGRHRDLVDEDLSHFQSGSPPAPNGFKQHGNPHLYHSQGKGSYKHDRVVPQSRASAQIISSSKSQILAPGEKITGKVKSDNGTGYDTDSSQDSRDRGNSCDSSSKSRNRGWKPMRETLNVDSIFSESEKRQHSPRHKPNISNKPKSSKDPSFSNWPKENPKQKGLMTIYEDEMKQEIGSRSSLESNGKGAEKNKGLVEGKVHGDNWQMQRTESGYESSDHISNGSTNLDSPVIDGNGTVMDISGVKETVCFSDQITTSNLNKERGDCTSLQSQHHLEGFRKELRNLEAGYKSHEFHPESHLQIKNHLIKRSHVHEDNGKLFPSSSLQIPKDHNAREHIHQSDEQKLEKPNECKFSEWLNIENSERTGLPFHVDNSASGKRVNSNEPSSLWSSHLRTVGLKPETAPLIQQQNIMDQCYFENSLSTECIIRSASRSDGCQMPKLFCQNLPPPLPPKKYAITSVPQSEKSESTPDVKLTEVFKATSHLPKHSLSTASEPSLEVSTHMNDERHKETFQVRECFGNTPNCPSSSSTNDFQANSGAIDAFCQPELDSISTCPNETVSLTTYFSVDSCMTDTYRLKYHQRPKLSFPESSGFCNNSLS

Where two headings read alike, the source gives them in different places. No constants are given. Whether binding was seen depends on the method and setting. Binding seen in cells or lysates may run through a third protein. For part of these data: Tags and fused reporters may be left off the sequences shown.
